Paper PMC7794343, “Structures of human dual oxidase 1 complex in low-calcium and high-calcium states” (Nature Communications, 2021)
These are yes or no findings as the source states them, for the method shown. Some binding calls cover weakened binding; strength is not graded here. For some assays here: Sequences can lack the tags named with a protein.

What was measured:
[1] = target: human dual oxidase 1 (hDUOX1), matured protein 20-1551 with N-terminal GFP tag (human) (UniProt Q9NRD9); test: SEC; fluorescence size-exclusion chromatography (FSEC) of GFP-tagged hDUOX1 co-expressed with hDUOXA1; membrane solubilised in TBS + 1% digitonin, 1 h, 4 °C
[2] = target: hDUOX1 CBS2 mutant (D109A + D174A) (human) (UniProt Q9NRD9); test: as above
[3] = target: hDUOX1 CBS1 mutant (D397A + T332A) (human) (UniProt Q9NRD9); test: as above
[4] = target: human dual oxidase 1 (hDUOX1), matured protein 20-1551 with N-terminal GFP tag (human) (UniProt Q9NRD9); test: cryo-EM structure; hDUOX1-hDUOXA1 complex in peptidisc (NSPr); 2.5 mM EGTA (low calcium) or 0.5 mM free calcium (high calcium); 100 uM FAD, 500 uM NADPH, 0.5 mM fluorinated octyl-maltoside; both purified
[5] = target: human dual oxidase 1 (hDUOX1), matured protein 20-1551 with N-terminal GFP tag (human) (UniProt Q9NRD9); test: SEC; fluorescence size-exclusion chromatography (FSEC) of GFP-tagged hDUOX1 expressed without hDUOXA1

B1: human dual oxidase maturation factor 1 (hDUOXA1) with C-terminal MBP-mScarlet tag (protein, UniProt Q1HG43 1-330)
chain: MATLGHTFPFYAGPKPTFPMDTTLASIIMIFLTALATFIVILPGIRGKTRLFWLLRVVTSLFIGAAILAVNFSSEWSVGQVSTNTSYKAFSSEWISADIGLQVGLGGVNITLTGTPVQQLNETINYNEEFTWRLGENYAEEYAKALEKGLPDPVLYLAEKFTPRSPCGLYRQYRLAGHYTSAMLWVAFLCWLLANVMLSMPVLVYGGYMLLATGIFQLLALLFFSMATSLTSPCPLHLGASVLHTHHGPAFWITLTTGLLCVLLGLAMAVAHRMQPHRLKAFFNQSVDEDPMLEWSPEEGGLLSPRYRSMADSPKSQDIPLSEASSTKAY
[1]
  binding: binds
[2]
  binding: no binding
[3]
  binding: no binding

B2: human dual oxidase maturation factor 1 (hDUOXA1), as in the purified peptidisc complex (natural protein)
chain: MATLGHTFPFYAGPKPTFPMDTTLASIIMIFLTALATFIVILPGIRGKTRLFWLLRVVTSLFIGAAILAVNFSSEWSVGQVSTNTSYKAFSSEWISADIGLQVGLGGVNITLTGTPVQQLNETINYNEEFTWRLGENYAEEYAKALEKGLPDPVLYLAEKFTPRSPCGLYRQYRLAGHYTSAMLWVAFLCWLLANVMLSMPVLVYGGYMLLATGIFQLLALLFFSMATSLTSPCPLHLGASVLHTHHGPAFWITLTTGLLCVLLGLAMAVAHRMQPHRLKAFFNQSVDEDPMLEWSPEEGGLLSPRYRSMADSPKSQDIPLSEASSTKAY
modifications: N-linked glycosylation on N109
notes: human DUOXA1; cDNA cloned into a non-tagged BacMam vector or one with C-terminal MBP-mScarlet tag; the non-tagged one is surmised here; source: HEK293F, BacMam baculovirus infection, co-expressed with hDUOX1 from a bicistronic vector; purified with hDUOX1 (Streptactin beads, peptidisc, Superose 6 increase)
[4]
  binding: binds

B3: human dual oxidase 1 (hDUOX1), matured protein 20-1551 with N-terminal GFP tag (enzyme, UniProt Q9NRD9-1 20-1551, looked up)
chain: GAQNPISWEVQRFDGWYNNLMEHRWGSKGSRLQRLVPASYADGVYQPLGEPHLPNPRDLSNTISRGPAGLASLRNRTVLGVFFGYHVLSDLVSVETPGCPAEFLNIRIPPGDPMFDPDQRGDVVLPFQRSRWDPETGRSPSNPRDPANQVTGWLDGSAIYGSSHSWSDALRSFSRGQLASGPDPAFPRDSQNPLLMWAAPDPATGQNGPRGLYAFGAERGNREPFLQALGLLWFRYHNLWAQRLARQHPDWEDEELFQHARKRVIATYQNIAVYEWLPSFLQKTLPEYTGYRPFLDPSISSEFVAASEQFLSTMVPPGVYMRNASCHFQGVINRNSSVSRALRVCNSYWSREHPSLQSAEDVDALLLGMASQIAEREDHVLVEDVRDFWPGPLKFSRTDHLASCLQRGRDLGLPSYTKARAALGLSPITRWQDINPALSRSNDTVLEATAALYNQDLSWLELLPGGLLESHRDPGPLFSTIVLEQFVRLRDGDRYWFENTRNGLFSKKEIEEIRNTTLQDVLVAVINIDPSALQPNVFVWHKGDPCPQPRQLSTEGLPACAPSVVRDYFEGSGFGFGVTIGTLCCFPLVSLLSAWIVARLRMRNFKRLQGQDRQSIVSEKLVGGMEALEWQGHKEPCRPVLVYLQPGQIRVVDGRLTVLRTIQLQPPQKVNFVLSSNRGRRTLLLKIPKEYDLVLLFNLEEERQALVENLRGALKESGLSIQEWELREQELMRAAVTREQRRHLLETFFRHLFSQVLDINQADAGTLPLDSSQKVREALTCELSRAEFAESLGLKPQDMFVESMFSLADKDGNGYLSFREFLDILVVFMKGSPEEKSRLMFRMYDFDGNGLISKDEFIRMLRSFIEISNNCLSKAQLAEVVESMFRESGFQDKEELTWEDFHFMLRDHNSELRFTQLCVKGVEVPEVIKDLCRRASYISQDMICPSPRVSARCSRSDIETELTPQRLQCPMDTDPPQEIRRRFGKKVTSFQPLLFTEAHREKFQRSCLHQTVQQFKRFIENYRRHIGCVAVFYAIAGGLFLERAYYYAFAAHHTGITDTTRVGIILSRGTAASISFMFSYILLTMCRNLITFLRETFLNRYVPFDAAVDFHRLIASTAIVLTVLHSVGHVVNVYLFSISPLSVLSCLFPGLFHDDGSEFPQKYYWWFFQTVPGLTGVVLLLILAIMYVFASHHFRRRSFRGFWLTHHLYILLYVLLIIHGSFALIQLPRFHIFFLVPAIIYGGDKLVSLSRKKVEISVVKAELLPSGVTHLRFQRPQGFEYKSGQWVRIACLALGTTEYHPFTLTSAPHEDTLSLHIRAAGPWTTRLREIYSAPTGDRCARYPKLYLDGPFGEGHQEWHKFEVSVLVGGGIGVTPFASILKDLVFKSSVSCQVFCKKIYFIWVTRTQRQFEWLADIIREVEENDHQDLVSVHIYITQLAEKFDLRTTMLYICERHFQKVLNRSLFTGLRSITHFGRPPFEPFFNSLQEVHPQVRKIGVFSCGPPGMTKNVEKACQLINRQDRTHFSHHYENF
modifications: N-linked glycosylation
notes: human DUOX1, matured protein residues 20-1551; Secretion guided by a rat FSHbeta signal peptide before the GFP tag; GFP-tagged protein is 219 kDa; also called GFP-tagged hDUOX1; WT hDOUX1; source: HEK293F, BacMam baculovirus infection; digitonin-solubilised membrane for FSEC; purified with hDUOXA1 (Streptactin beads, peptidisc with NSPr, Superose 6 increase) for cryo-EM; not shown: GFP, …
[5]
  binding: no binding (condition: expressed without hDUOXA1)
